From publication PMC5891081 come the findings set out here.

Protein sequences, listed by entry. Tags and fused reporters are not part of them.
UniProt Q06609: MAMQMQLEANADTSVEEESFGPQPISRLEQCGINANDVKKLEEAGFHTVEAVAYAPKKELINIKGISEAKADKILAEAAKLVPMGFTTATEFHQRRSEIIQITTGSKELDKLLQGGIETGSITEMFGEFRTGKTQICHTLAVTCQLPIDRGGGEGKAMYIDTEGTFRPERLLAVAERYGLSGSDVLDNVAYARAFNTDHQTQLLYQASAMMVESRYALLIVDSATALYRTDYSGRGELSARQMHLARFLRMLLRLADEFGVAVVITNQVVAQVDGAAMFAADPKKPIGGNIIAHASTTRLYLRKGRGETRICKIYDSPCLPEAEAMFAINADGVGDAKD

The assay deals with T1, GAL4-DBD-fused human RAD52 (Wt) (human) (UniProt P43351).
T1 sequence: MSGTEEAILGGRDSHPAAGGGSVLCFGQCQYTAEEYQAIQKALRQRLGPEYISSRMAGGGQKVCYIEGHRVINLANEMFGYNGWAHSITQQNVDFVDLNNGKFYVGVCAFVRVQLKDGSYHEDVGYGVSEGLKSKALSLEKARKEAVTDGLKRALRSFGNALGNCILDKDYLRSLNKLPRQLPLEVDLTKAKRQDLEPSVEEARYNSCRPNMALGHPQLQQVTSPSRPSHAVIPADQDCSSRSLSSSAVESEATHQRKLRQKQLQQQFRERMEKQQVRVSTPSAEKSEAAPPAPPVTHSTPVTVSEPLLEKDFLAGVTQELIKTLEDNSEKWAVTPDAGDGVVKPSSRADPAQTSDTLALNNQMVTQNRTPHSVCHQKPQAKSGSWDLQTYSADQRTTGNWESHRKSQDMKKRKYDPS
Briefly: two-hybrid; yeast MAV203; GAL4 DBD fusion with NLS-GAL4 AD fusion; His3 reporter, growth on SC-Leu-Trp-His agar with 25 mM 3AT.

No constants are given. Whether binding was seen depends on the method and setting. Some binding calls cover weakened binding; strength is not graded here. Tags and fused reporters may be left off the sequences shown.

Turning to “NLS-GAL4-AD-fused human RAD51 (from UniProt Q06609 1-339)”, the binding entry was “binds”.
